Source: PubChem BioAssay AID590 (National Center for Advancing Translational Sciences (NCATS), 2007)
Among all 59,000 compounds or so, about 6,500 (11%) were called active. Inconclusive means that the source gave no clear call. Such entries were picked first, then a sample of the others. Cut-off read from the data, not from the text of the source: active = max dye-equivalent concentration above about 10 nM; inconclusive = mostly about 1.1 nM to 9.6 nM; inactive = weaker than that.

Experiment: qHTS Assay for Spectroscopic Profiling in A350 Spectral Region
Conditions: Compound autofluorescence, 340/450 nm, Alexa 350 dye-equivalents; stronger effect = higher value

SMILES | max dye-equivalent concentration
COC(=O)c1cc(=O)nc2sc3ccccc3n12 | inconclusive: 4 nM
COC(=O)c1[nH]c2cccc(OC)c2c1NC(=O)CCN1CC(C)CC(C)C1 (stereo unspecified) | inconclusive: 3.5 nM
COCCn1c(=O)c(C)nc2cnc(N(C)C)nc21 | inconclusive: 7.7 nM
O=C(Nc1ccc2oc(-c3ccncc3)nc2c1)c1cccs1 | active: 37 nM
Cc1cccc(OCc2nnc(SCn3nnc4ccccc4c3=O)o2)c1 | inactive
FC(F)(F)c1cc(-c2ccccc2)nc(N2CCCCC2)n1 | active: 37 nM
Cc1cccc(Cn2c(N3CCN(c4ccccc4)CC3)nc3c2c(=O)n(C)c(=O)n3C)c1 | inactive
Cc1cc(NC(=O)C(C)(C)C)no1 | inconclusive: 4 nM
COc1ccccc1N1CC(C(=O)OCC(=O)c2ccc(F)cc2)CC1=O (stereo unspecified) | inconclusive: 1.8 nM
COc1ccc(-c2nc3cnc(N4CCN(C)CC4)nc3n(-c3ccc(OC)cc3)c2=O)cc1 | inconclusive: 3.3 nM
COc1ccc(C(=O)NC(=O)Nc2cc(C)ccn2)cc1 | inactive
O=c1[nH]cnc2[nH]ncc12 | inconclusive: 3.3 nM
Cc1ccc(C2Nc3ccccc3-c3nc4ccccc4n32)o1 (stereo unspecified) | active: 1600 nM
O=C(NCc1ccncc1)Nc1ccc(F)cc1 | inconclusive: 3.7 nM
Cc1ccc(NC(=O)C2CCCN(S(=O)(=O)c3c(C)noc3C)C2)nc1 (stereo unspecified) | inactive
COc1cccc(OCC(=O)Nc2c(C(=O)Nc3ccc(OC)cc3OC)oc3ccccc23)c1 | active: 77 nM
Cc1cccc2cc(C#N)c(N3CCN(C)CC3)nc12 | active: 77 nM
COc1ccc(CNC(=O)C(c2cccs2)N(C(=O)c2csnn2)C2CC2)cc1 (stereo unspecified) | active: 11 nM
O=C(NCCN1CCCCCC1)C1CCN(S(=O)(=O)N2CCOCC2)CC1 | inactive
CCOC(=O)C1CCN(C(=O)c2cccnc2)CC1 | inactive
COc1cccc(Cn2c(=O)c(CCc3ccccc3)nc3cnc(N4CCOCC4)nc32)c1 | inconclusive: 2.5 nM
CC(C)(C)n1ncc2c(=O)n(CC(=O)c3ccc(Cl)cc3)cnc21 | inactive
CCc1nnc(NC(=O)CCC(=O)N2CCN(CCOc3ccc(C)cc3)CC2)s1 | active: 8900 nM
COc1cccc2cc(C(=O)C3=C(O)C(=O)N(CCN4CCOCC4)C3c3cccs3)oc12 (stereo unspecified) | inconclusive: 1.1 nM
CS(=O)(=O)Nc1cccc(-c2ccc3ncnc(NCCN4CCOCC4)c3c2)c1 | inactive
CC(=O)c1cc2c(cc1N)OCO2 | inconclusive: 1.1 nM

As a working copy, part of the list above.
SMILES | max dye-equivalent concentration
Cc1ccc(C2Nc3ccccc3-c3nc4ccccc4n32)o1 (stereo unspecified) | active: 1600 nM
O=C(NCc1ccncc1)Nc1ccc(F)cc1 | inconclusive: 3.7 nM
